# Assay results reported in PMC8767557.
# Protein sequences, listed by entry. Tags and fused reporters are not part of them.
# UniProt P52294: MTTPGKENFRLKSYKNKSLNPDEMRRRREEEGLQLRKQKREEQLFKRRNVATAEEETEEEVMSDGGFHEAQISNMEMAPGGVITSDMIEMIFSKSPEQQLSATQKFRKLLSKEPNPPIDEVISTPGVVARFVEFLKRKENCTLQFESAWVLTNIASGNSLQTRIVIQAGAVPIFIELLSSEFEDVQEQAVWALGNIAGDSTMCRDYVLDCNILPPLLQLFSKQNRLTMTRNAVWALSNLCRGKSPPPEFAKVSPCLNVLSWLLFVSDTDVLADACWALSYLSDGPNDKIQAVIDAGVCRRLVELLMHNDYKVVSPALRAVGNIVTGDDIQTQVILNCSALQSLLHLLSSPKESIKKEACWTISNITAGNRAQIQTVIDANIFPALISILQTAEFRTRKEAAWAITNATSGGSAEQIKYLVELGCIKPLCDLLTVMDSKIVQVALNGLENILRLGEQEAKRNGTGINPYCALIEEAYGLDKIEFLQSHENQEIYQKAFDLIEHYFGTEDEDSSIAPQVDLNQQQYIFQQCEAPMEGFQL
# UniProt Q5XX02: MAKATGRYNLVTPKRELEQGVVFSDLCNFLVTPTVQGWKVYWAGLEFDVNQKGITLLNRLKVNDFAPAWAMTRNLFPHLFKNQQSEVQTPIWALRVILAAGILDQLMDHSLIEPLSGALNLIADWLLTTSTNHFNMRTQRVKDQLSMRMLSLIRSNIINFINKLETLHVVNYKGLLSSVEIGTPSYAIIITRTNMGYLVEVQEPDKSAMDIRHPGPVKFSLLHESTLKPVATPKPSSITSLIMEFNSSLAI
# These are yes or no findings as the source states them, for the method shown. Binding seen in cells or lysates may run through a third protein. Some entries that bind do so weakly or less than the wild type.
# Target: GST-importin α5 (human importin α5 as a GST fusion protein) (human) (UniProt P52294)
# Test: pull-down; […] (50 mM Tris-HCl pH 7.4, 150 mM NaCl, 5 mM EDTA, 1% Triton X-100), […]; only the target purified
substance,measurement,value
Sudan ebolavirus (SUDV) VP24 (from UniProt Q5XX02 1-251),binding,binds
